# Measured values taken from patent publication US20110021541A1, “INHIBITORS OF HUMAN PHOSPHATIDYL-INOSITOL 3-KINASE DELTA” (priority 2007, published 2011).
# Like-named read-outs stand apart in the source and are kept apart here. At least one structure is not confirmed: it was looked up by name or label, or the drawing left a doubt.
# How the values were obtained:
# Class I PI 3-kinases = settings: cited from earlier work
# neutrophils = settings: cited from earlier work
# [1] = test system: osteoclasts from mouse bone marrow cells; assay: Osteoclast function (pit depth on dentine slices); format: cell-based; settings: inhibitors 100 nM, 72 hr
Structure (SMILES),"IC50 (Class I PI 3-kinases; Fruman et al. 1998, read-out: IC50 against each of these PI 3-kinases) [nM]",superoxide release (neutrophils),osteoclast activity [1],IC50 (Class I PI 3-kinases; read-out: IC50 against each of the various Class I PI 3-kinases) [nM],neutrophil migration (neutrophils)
O=c1cc(N2CCOCC2)oc2c(-c3ccccc3)cccc12 [LY294002],~1000,block,inhibited osteoclast activity,–,–
COC[C@H]1OC(=O)c2coc3c2[C@@]1(C)C1=C(C3=O)[C@@H]2CCC(=O)[C@@]2(C)C[C@H]1OC(C)=O [wortmannin],–,block,inhibited osteoclast activity,1 to 10,block
